Data: PMC5714123
Weaker means in comparison with the reference protein, sequence or condition of that experiment. For some assays here: The exact form of at least one protein or probe is not confirmed. For some assays here: At least one verdict was read from the data and is not stated in words by the source.

Chains of the proteins cited; added tags and fusions are not shown. Residues count along the entry.
UniProt P84022, 1-132: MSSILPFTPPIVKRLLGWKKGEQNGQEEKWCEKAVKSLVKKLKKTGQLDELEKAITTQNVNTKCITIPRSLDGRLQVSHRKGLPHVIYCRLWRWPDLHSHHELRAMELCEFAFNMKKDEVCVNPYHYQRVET

Assays:
[1] = target: SMAD3 MH1 (Homo sapiens) (UniProt P84022); experiment: EMSA; settings: EMSA: 25 mM Tris-HCl (pH not given for binding buffer; RNA stock pH 7.5), 115 mM KCl, 1 mM MgCl2, 1 mM DTT, 20 ng/ul poly I:C, 0.1 mg/ml BSA, 10% glycerol, on ice 2 h, recombinant protein, residues 1-132, protein details: 6xHis-SUMO cleaved; for binding result: single screen
[2] = target: SMAD3 MH1 (Homo sapiens) (UniProt P84022); experiment: competition with a labelled probe; settings: vs 1 nM labeled dsDNA 19, 350 nM SMAD3 MH1; EMSA: 25 mM Tris-HCl (pH not given for binding buffer; RNA stock pH 7.5), 115 mM KCl, 1 mM MgCl2, 1 mM DTT, 20 ng/ul poly I:C, 0.1 mg/ml BSA, 10% glycerol, on ice 2 h; recombinant protein; residues 1-132; protein details: 6xHis-SUMO cleaved; label: 5' 32P (EMSA), unlabeled as competitor

Sequence	binding result ([1]; label: 5' 32P)	other results
GGACGUGGCCCAGACCUCAGCUUCGGCUGAUGGACUGAGUCACGUCC [8a hsa-miR-631 central stem]	binds more weakly	
GUAUGUCUAGACUGAA / TTCAGTCTAGACATAC [13 RNA/DNA hybrid duplex with 2 SBEs]		Kd ([1]; label: 5' 32P on one strand, DNA:RNA hybrid): > 10 µM
GGACAACCAGUGUUCAGACUACCUGUUUCGACAGUAGUCUGCACACUGGUUGUCC [3a hsa-miR-199a-1 central stem]	binds more weakly	
UUUUUUUUUUUUUUUUUUUUUUUUUUUUUUUUUUUUUUUUUUUUUUUUUUUUUUU [12 U55]		Kd ([1]; label: 5' 32P): > 10 µM
GGACGCUCUUGUCUGUCAGGCAGUGGAGUUACUUACAGACAAGAGCGUCC [7a hsa-miR-600 natural loop]	binds more weakly	
UCAACAUCAGUCUGAUAAGCUA / UAGCUUAUCAGACUGAUGUUGA [15 miR-21 RNA duplex]		Kd ([1]; label: 5' 32P on one strand): > 10 µM
GGACAAUCAGACUACCUGUUUCGACAGGUAGUCUGCUUGUCC [3b hsa-miR-199a1 minimal SBE]	binds more weakly	
GGACGAUUGACAGACAAUAUGCGUUCGCGCAGUUUGUCUGUCAUUCGUCC [4a hsa-miR-215 central stem]	binds more weakly	
GGUGAGGUAGUAUGUAAGCUUCGGCUUUCAACUAACUCGCC [9b cel-miR-84 short]	binds more weakly	
GUAUGUCUAGACUGAA / UUCAGUCUAGACAUAC [14 dsRNA duplex with 2 SBEs]		Kd ([1]; label: 5' 32P on one strand): > 10 µM
GGAUCGAUCGAUCGAUCGGCAUCGAUCGGCUUCGGCCGAUCGAUGCCGAUCGAUCGAUCGAUCC [16 30-bp hairpin]		binding result [2]: binds more weakly
GGACGAUUGACAGACAAUAUAGCUGAGUUUGUCUGUCAUUCGUCC [4b hsa-miR-215 natural loop]	binds more weakly	
GGACGUUAAAUGUUUGUUGAGCGUUCGCGCUCAACAGACAUUAAUCGUCC [5a pri-miRNA central stem (name elided in material)]	binds more weakly	
GGACGAUGCUCAGACUCCUGUGUUCGCACGGAUGUUUGAGCAUCGUCC [2a pri-miRNA central stem (name elided in material)]	binds more weakly	
